Results: patent US11992473B2, “Compositions and methods for diagnosis and treatment of conditions related to the quality of aging and longevity” (Epitracker, Inc., priority 2018, dated 2024)

Legend:
[1] = Serum global metabolomics and complex lipid profiling: wild versus Navy dolphins (Welch's two-sample t-tests); type: in vivo, Bottlenose dolphins (Tursiops truncatus); conditions: metabolites significantly higher in wild (Sarasota Bay) than in Navy dolphins
[2] = Modified fish diet study: fold differences of serum metabolites; type: in vivo, Bottlenose dolphins (Tursiops truncatus); conditions: for Significant fold differences in serum between Month 0 and Month 1 in Modified Diet group: Month 1 vs Month 0

| SMILES | Ratio of serum-based levels in wild versus Navy dolphins [1] | Significant fold differences in serum between Month 0 and Month 1 in Modified Diet group [2] | Significant fold differences in serum between Baseline and Modified Diet groups at Month 1 [2] |
| --- | --- | --- | --- |
| NC(=O)NCCCC[C@H](N)C(=O)O [Homocitrulline] | 1.25 | 1.32 |  |
| C[C@](N)(CO)C(=O)O [2-methylserine] | 2.58 | 1.62 | 1.52 |
| O=C(O)[C@@H]1C[C@@H](O)CN1 (relative stereo) [Trans-4-hydroxyproline] | 4.17 | 1.52 | 1.46 |
| O=C(O)CCCCCCCCCCCCCCCO [16-hydroxypalmitate] | 1.35 | 1.26 |  |
| CS(=O)(=O)CC[C@H](N)C(=O)O [Methionine sulfone] | 1.35 | 1.48 | 1.42 |
